Measured values: patent US20100104614A1, “PROVIDONE COMPOSITIONS FOR WOUND HEALING” (priority 2008, published 2010)

Test: Treatment of non-healing skin excision wound after melanoma removal (Example 2)
Type: in vivo, human
Details: dressing changes, topical antibiotics and oral Keflex tablets
Excerpt: A diabetic person with a melanoma on their back had the cancer surgically removed. The resulting excision wound measured approximately 3.0 cm×3.0 cm, and extended into the dermis.
Approximately one tablespoon of povidone powder was applied several times a day. Within one day, the wound began to granulate. After one week of treatment, the wound was completely healed.

CC1=C(C(=O)O)N2C(=O)[C@@H](NC(=O)[C@H](N)c3ccccc3)[C@H]2SC1 [Keflex]
wound healing outcome of prior treatment: without improvement
